For one molecule, IC50 results are on record in publication PMC4412883 (FEBS Open Bio, 2015).

For assay [1], the target named is GlcPSe (Staphylococcus epidermidis, UniProt A0A0H2VG78, R367A). The experiment in a line: cell-based.
Assay [2] concerns the target GlcPSe (Staphylococcus epidermidis, UniProt A0A0H2VG78, N136A). The experiment in a line: biochemical.
For assay [3], the target named is GlcPSe (Staphylococcus epidermidis, UniProt A0A0H2VG78). As to the kind of experiment: biochemical.

For `Cc1cc2c(s1)Nc1ccccc1N=C2N1CCN(C)CC1` [olanzapine], the IC50 against GlcPSe [1] stood at 800 ± 100 µM; against GlcPSe [2], 1500 ± 200 µM; against GlcPSe [3], 900 ± 100 µM.

Usually IC50 stands for the midpoint of a concentration-inhibition curve. Low values mean greater potency, high ones weaker potency.
